# Assay results published in the supplement of paper PMC8728848.
# The other results are listed elsewhere or left out.
# B1: HA-61200 (Pseudomonas aeruginosa), Q02SP8_PSEAB (protein)
# chain: MNKCYALVWNVSQGCWNVVSEGSRRRGKPAGAKAAIASVLALLGATALAPAYALPSGGTVVGGSANGEIHLSGGNSLSVNQKVDKLIANWDSFSVAAGERVIFNQPSSSSIALNRVIGTKASDIQGRIDANGQVFLVNPNGVLFGRGAQVNVGGLVASTLDITDAEFNGNSSRYRFTGPSTNGVLNHGGAITAAEGGSIALLGAQVDNRGTVLAQMGGVGLGAGSDLTLNFDGNKLLDIRVDAGVANALASNGGLLKADGGRVLMAARTANALLNTVVNSQGAIEARSLRGKNGRIVLDG
# Key:
# Experiment in all cases: glycan array binding signal (z-score within array); higher = stronger binding
# Settings in all cases: glycan notation: IUPAC condensed, linker removed
# [1] = molecular target: Fuc(a1-3)[Gal(b1-4)]GlcNAc(b1-3)Gal(b1-3)[Fuc(a1-4)]GlcNAc
# In short: (§1)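 Glycan array data were curated from 3228 arrays in the Consortium for Functional Glycomics database and kept only where the protein sequence was available. Glycan names were converted to IUPAC-condensed notation, and columns mapping to the same glycan were averaged. The binding signal is a within-array Z-score, averaged across arrays of the same protein sequence at different concentrations or buffers and across linkers. Negative Z-scores can be read as non-binding.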
# [2] = molecular target: Fuc(a1-3)[Gal(b1-4)]GlcNAc(b1-3)Gal(b1-4)[Fuc(a1-3)]GlcNAc
# In short: as §1
# [3] = molecular target: Fuc(a1-3)[Gal(b1-4)]GlcNAc(b1-3)Gal(b1-4)[Fuc(a1-3)]GlcNAc(b1-3)Gal(b1-4)[Fuc(a1-3)]GlcNAc
# In short: as §1
# [4] = molecular target: Fuc(a1-3)[Gal(b1-4)]GlcNAc(b1-3)GalNAc
# In short: as §1
# [5] = molecular target: Fuc(a1-3)[Gal(b1-4)]GlcNAc(b1-6)GalNAc
# In short: as §1
# [6] = molecular target: Fuc(a1-3)[Gal(b1-4)]GlcNAc(b1-6)[Gal(b1-3)GlcNAc(b1-3)]Gal(b1-4)Glc
# In short: as §1
# [7] = molecular target: Fuc(a1-3)[Gal(b1-4)]GlcNAc6S
# In short: as §1
# [8] = molecular target: Fuc(a1-3)[Gal3S(b1-4)]Glc
# In short: as §1
# [9] = molecular target: Fuc(a1-3)[Gal3S(b1-4)]GlcNAc
# In short: as §1
# [10] = molecular target: Fuc(a1-3)[Gal3S(b1-4)]GlcNAc6S
# In short: as §1
# [11] = molecular target: Fuc(a1-3)[GalNAc(b1-4)]GlcNAc
# In short: as §1
# [12] = molecular target: Fuc(a1-3)[GalNAc(b1-4)]GlcNAc6S
# In short: as §1
# Fuc(a1-4)GlcNAc = molecular target: Fuc(a1-4)GlcNAc
# In short: as §1
# Fuc(b1-3)GlcNAc = molecular target: Fuc(b1-3)GlcNAc
# In short: as §1
# Gal(a1-2)Gal = molecular target: Gal(a1-2)Gal
# In short: as §1
# Gal(a1-3)Gal = molecular target: Gal(a1-3)Gal
# In short: as §1
# Gal(a1-3)Gal(b1-3)GlcNAc = molecular target: Gal(a1-3)Gal(b1-3)GlcNAc
# In short: as §1
# [13] = molecular target: Gal(a1-3)Gal(b1-3)GlcNAc(b1-2)Man
# In short: as §1
# [14] = molecular target: Gal(a1-3)Gal(b1-3)GlcNAc(b1-2)Man(a1-3)[Gal(a1-3)Gal(b1-3)GlcNAc(b1-2)Man(a1-6)]Man(b1-4)GlcNAc(b1-4)GlcNAc
# In short: as §1
# [15] = molecular target: Gal(a1-3)Gal(b1-3)GlcNAc(b1-3)GalNAc
# In short: as §1
# [16] = molecular target: Gal(a1-3)Gal(b1-3)GlcNAc(b1-6)GalNAc
# In short: as §1
# [17] = molecular target: Gal(a1-3)Gal(b1-3)[Fuc(a1-4)]GlcNAc(b1-2)Man(a1-3)[Gal(a1-3)Gal(b1-3)[Fuc(a1-4)]GlcNAc(b1-2)Man(a1-6)]Man(b1-4)GlcNAc(b1-4)GlcNAc
# In short: as §1
# Gal(a1-3)Gal(b1-4)Glc = molecular target: Gal(a1-3)Gal(b1-4)Glc
# In short: as §1
# Gal(a1-3)Gal(b1-4)GlcNAc = molecular target: Gal(a1-3)Gal(b1-4)GlcNAc
# In short: as §1
# [18] = molecular target: Gal(a1-3)Gal(b1-4)GlcNAc(b1-2)Man
# In short: as §1
# [19] = molecular target: Gal(a1-3)Gal(b1-4)GlcNAc(b1-2)Man(a1-3)[Gal(a1-3)Gal(b1-4)GlcNAc(b1-2)Man(a1-6)]Man(b1-4)GlcNAc(b1-4)GlcNAc
# In short: as §1
# [20] = molecular target: Gal(a1-3)Gal(b1-4)GlcNAc(b1-3)GalNAc
# In short: as §1
# [21] = molecular target: Gal(a1-3)Gal(b1-4)GlcNAc(b1-6)GalNAc
# In short: as §1
# [22] = molecular target: Gal(a1-3)Gal(b1-4)[Fuc(a1-3)]GlcNAc
# In short: as §1
# [23] = molecular target: Gal(a1-3)Gal(b1-4)[Fuc(a1-3)]GlcNAc(b1-2)Man(a1-3)[Gal(a1-3)Gal(b1-4)[Fuc(a1-3)]GlcNAc(b1-2)Man(a1-6)]Man(b1-4)GlcNAc(b1-4)GlcNAc
# In short: as §1
# Gal(a1-3)GalNAc = molecular target: Gal(a1-3)GalNAc
# In short: as §1
# [24] = molecular target: Gal(a1-3)[Gal(a1-4)]Gal(b1-4)GlcNAc
# In short: as §1
# [25] = molecular target: Gal(a1-4)Gal(b1-3)GlcNAc(b1-2)Man(a1-3)[Gal(a1-4)Gal(b1-3)GlcNAc(b1-2)Man(a1-6)]Man(b1-4)GlcNAc(b1-4)GlcNAc
# In short: as §1
# Gal(a1-4)Gal(b1-4)Glc = molecular target: Gal(a1-4)Gal(b1-4)Glc
# In short: as §1
# Gal(a1-4)Gal(b1-4)GlcNAc = molecular target: Gal(a1-4)Gal(b1-4)GlcNAc
# In short: as §1
# [26] = molecular target: Gal(a1-4)Gal(b1-4)GlcNAc(b1-2)Man(a1-3)[Gal(a1-4)Gal(b1-4)GlcNAc(b1-2)Man(a1-6)]Man(b1-4)GlcNAc(b1-4)GlcNAc
# In short: as §1
# [27] = molecular target: Gal(a1-4)Gal(b1-4)GlcNAc(b1-3)Gal(b1-4)Glc
# In short: as §1
# Gal(a1-4)GlcNAc = molecular target: Gal(a1-4)GlcNAc
# In short: as §1
binder,measurement,setting,value
B1,glycan array binding signal (z-score),[1],-0.864
same,glycan array binding signal (z-score),[2],-0.066
same,glycan array binding signal (z-score),[3],-0.104
same,glycan array binding signal (z-score),[4],-0.408
same,glycan array binding signal (z-score),[5],0.649
same,glycan array binding signal (z-score),[6],-0.636
same,glycan array binding signal (z-score),[7],1.51
same,glycan array binding signal (z-score),[8],-0.319
same,glycan array binding signal (z-score),[9],-0.343
same,glycan array binding signal (z-score),[10],-0.041
same,glycan array binding signal (z-score),[11],0.68
same,glycan array binding signal (z-score),[12],-0.44
same,glycan array binding signal (z-score),Fuc(a1-4)GlcNAc,-0.926
same,glycan array binding signal (z-score),Fuc(b1-3)GlcNAc,-0.707
same,glycan array binding signal (z-score),Gal(a1-2)Gal,-1
same,glycan array binding signal (z-score),Gal(a1-3)Gal,-0.38
same,glycan array binding signal (z-score),Gal(a1-3)Gal(b1-3)GlcNAc,-0.705
same,glycan array binding signal (z-score),[13],-0.054
same,glycan array binding signal (z-score),[14],5.54
same,glycan array binding signal (z-score),[15],-0.047
same,glycan array binding signal (z-score),[16],0.334
same,glycan array binding signal (z-score),[17],0.726
same,glycan array binding signal (z-score),Gal(a1-3)Gal(b1-4)Glc,-0.013
same,glycan array binding signal (z-score),Gal(a1-3)Gal(b1-4)GlcNAc,-0.146
same,glycan array binding signal (z-score),[18],-0.282
same,glycan array binding signal (z-score),[19],0.841
same,glycan array binding signal (z-score),[20],-0.518
same,glycan array binding signal (z-score),[21],-1.12
same,glycan array binding signal (z-score),[22],-0.154
same,glycan array binding signal (z-score),[23],0.758
same,glycan array binding signal (z-score),Gal(a1-3)GalNAc,-0.442
same,glycan array binding signal (z-score),[24],0.037
same,glycan array binding signal (z-score),[25],9.66
same,glycan array binding signal (z-score),Gal(a1-4)Gal(b1-4)Glc,1.97
same,glycan array binding signal (z-score),Gal(a1-4)Gal(b1-4)GlcNAc,0.171
same,glycan array binding signal (z-score),[26],1.2
same,glycan array binding signal (z-score),[27],-0.716
same,glycan array binding signal (z-score),Gal(a1-4)GlcNAc,-0.101

# Eleven entries from above, bar-delimited:
binder | measurement | setting | value
B1 | glycan array binding signal (z-score) | [8] | -0.319
same | glycan array binding signal (z-score) | [9] | -0.343
same | glycan array binding signal (z-score) | [10] | -0.041
same | glycan array binding signal (z-score) | [11] | 0.68
same | glycan array binding signal (z-score) | [12] | -0.44
same | glycan array binding signal (z-score) | Fuc(a1-4)GlcNAc | -0.926
same | glycan array binding signal (z-score) | Fuc(b1-3)GlcNAc | -0.707
same | glycan array binding signal (z-score) | Gal(a1-2)Gal | -1
same | glycan array binding signal (z-score) | Gal(a1-3)Gal | -0.38
same | glycan array binding signal (z-score) | Gal(a1-3)Gal(b1-3)GlcNAc | -0.705
same | glycan array binding signal (z-score) | [13] | -0.054
